The experiment concerns CD2F1 mice, L1210 leukemia ip, survival T/C. Nature of the experiment: NCI In Vivo Anticancer Drug Screen. Data for tumor model L1210 Leukemia (intraperitoneal) in CD2F1 (CDF1) mice. The conditions noted are these: higher T/C = longer survival. An outline of the steps: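 Mice carrying a transplanted tumor received test compound or vehicle alone. The value is the measurement in the treated group divided by that in the vehicle-treated control group.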

[1] abbreviates: T/C endpoint: mean survival time, dose: 200.0 mg/kg/injection, schedule: Q01DX009 (ip), vehicle: saline.
Where [2] appears, read: T/C endpoint: mean survival time, dose: 400.0 mg/kg/injection, schedule: Q04DX003 (ip), vehicle: saline.
[3] abbreviates: T/C endpoint: mean survival time, dose: 100.0 mg/kg/injection, schedule: Q04DX003 (ip), vehicle: saline with Tween-80.
Where [4] appears, read: T/C endpoint: mean survival time, dose: 200.0 mg/kg/injection, schedule: Q04DX003 (ip), vehicle: saline with Tween-80.
[5] abbreviates: T/C endpoint: mean survival time, dose: 400.0 mg/kg/injection, schedule: Q04DX003 (ip), vehicle: saline with Tween-80.
The mark [6] stands for this setting: T/C endpoint: mean survival time, dose: 75.0 mg/kg/injection, schedule: Q01DX001 (ip), vehicle: saline.
Where [7] appears, read: T/C endpoint: mean survival time, dose: 150.0 mg/kg/injection, schedule: Q01DX001 (ip), vehicle: saline.
[8] abbreviates: T/C endpoint: mean survival time, dose: 300.0 mg/kg/injection, schedule: Q01DX001 (ip), vehicle: saline.
The mark [9] stands for this setting: T/C endpoint: mean survival time, dose: 400.0 mg/kg/injection, schedule: Q01DX009 (ip), vehicle: saline with Tween-80.
[10] abbreviates: T/C endpoint: mean survival time, dose: 200.0 mg/kg/injection, schedule: Q01DX009 (ip), vehicle: saline with Tween-80.
Where [11] appears, read: T/C endpoint: mean survival time, dose: 50.0 mg/kg/injection, schedule: Q01DX009 (ip), vehicle: other.
The mark [12] stands for this setting: T/C endpoint: mean survival time, dose: 200.0 mg/kg/injection, schedule: Q01DX009 (ip), vehicle: other.

The list is a part of this screen's results and no random one: it gathers tests that were run many times, whatever their T/C, doses with no T/C, and many T/C values between a quarter and a half above the control. Further doses and runs are listed elsewhere. T/C gives the treated animals as a percentage of the vehicle group. Some doses have a count of surviving animals in place of a T/C: the source holds a T/C of zero for them, seemingly a mark for toxic or unscored doses. Some survivor counts are full or nearly so, which does not show that the dose was tolerated: survival well below the control is almost never listed, so the zero probably covers shortened survival too. Survivors were counted at the toxicity check, usually on the fifth day, unless a day is given; later deaths do not show. Schedule codes are those of the source, taken here to give the interval after Q, in days (D) or hours (H), and the number of doses after X. Some entries were tested several times; the values are given in rising order. For survival time, this PubChem deposit counts one and a half times the control or more as active, and values a quarter to a half above the control carry no call in these data; other NCI protocols may use other cut-offs. Some T/C values carry the count of animals alive at the toxicity check (mostly the fifth day); without a count, all were alive then.

Consider `O=C(O)c1cc(C(=O)O)cc(S(=O)(=O)O)c1.[NH-]C1CCCCC1[NH-].[Pt+2]`, for which the T/C by setting is: (T/C endpoint: median survival time, dose: 12.5 mg/kg/injection, schedule: Q04DX003 (ip), vehicle: saline) 128 % of control [5 of 6 alive]; (T/C endpoint: median survival time, dose: 25.0 mg/kg/injection, schedule: Q04DX003 (ip), vehicle: saline) 128 % of control; (T/C endpoint: median survival time, dose: 100.0 mg/kg/injection, schedule: Q04DX003 (ip), vehicle: saline) 141 % of control [5 of 6 alive]. For the same compound, under “T/C endpoint: median survival time, dose: 200.0 mg/kg/injection, schedule: Q04DX003 (ip), vehicle: saline”, the survivor count was 3 of 6 and 4 of 6.

Take `COCCCN1CCN(c2ccccc2OC)CC1`: the survivor count is on record as 0 of 6 under setting [1] and 0 of 6 under setting [2].

For the compound `COc1ccc2c(c1)N(CC(C)C[N+](C)(C)CCCCCCCCCCCCCCCC[N+](C)(C)CC(C)CN1c3ccccc3Sc3ccc(OC)cc31)c1ccccc1S2` (configuration not stated), the survivor count under setting [2] is 6 of 6.

For the compound `CCCN(CCC)C(=O)[S-].CCCN(CCC)C(=O)[S-].[Ni+2]`, the survivor count runs as follows: under setting [3], 1 of 6; under setting [4], 0 of 6; under setting [5], 0 of 6.

Consider `NC(CSC1(c2ccc(Cl)cc2)c2ccccc2-c2ccccc21)C(=O)O` (configuration not stated), for which the survivor count is on record as 2 of 6 under setting [1] and 0 of 6 (T/C endpoint: mean survival time, dose: 400.0 mg/kg/injection, schedule: Q01DX009 (ip), vehicle: saline).

As to `N#C/C(=C\C1CCC(Cl)C(Cl)C1)C1CCC([N+](=O)[O-])CC1` (configuration not stated), the survivor count (T/C endpoint: mean survival time, dose: 100.0 mg/kg/injection, schedule: Q04DX002 (ip), vehicle: saline with Tween-80) is on record as 3 of 3.

Turning to `CCN(CC)CCC(=O)c1ccccc1`, where the note is “T/C endpoint: mean survival time, dose: 100.0 mg/kg/injection, schedule: Q01DX009 (ip), vehicle: suspension in saline”, the survivor count is 1 of 6.

On to `C[S+](C)CCCNC(=O)c1csc(CCNC(=O)c2ccccc2)n1`, for which the survivor count by setting is: under setting [3], 5 of 6; under setting [4], 0 of 6; under setting [5], 1 of 6.

As to `CN(C)[C@@H]1C(=O)C(C(=O)NCN2CCN(C(=N)N=C(N)N)CC2)=C(O)[C@@]2(O)C(=O)C3=C(O)c4c(O)cccc4[C@@](C)(O)[C@H]3C[C@@H]12`, the survivor count was 5 of 6 (T/C endpoint: mean survival time, dose: 2.5 mg/kg/injection, schedule: Q01DX001 (ip), vehicle: saline); 2 of 6 (T/C endpoint: mean survival time, dose: 5.0 mg/kg/injection, schedule: Q01DX001 (ip), vehicle: saline); 0 of 6 under setting [6]; 0 of 6 under setting [7]; 0 of 6 under setting [8].

With `O=C(C[n+]1ccccc1)CC(O)(C(F)(F)F)C(F)(F)F`, under setting [9], the survivor count is 3 of 6.

Regarding `O=NN(CCCl)C(=O)Nc1ccccn1`, the survivor count was 0 of 6 (T/C endpoint: mean survival time, dose: 200.0 mg/kg/injection, schedule: Q01DX001 (ip), vehicle: other) and 0 of 6 (T/C endpoint: mean survival time, dose: 400.0 mg/kg/injection, schedule: Q01DX001 (ip), vehicle: other).

As to `CNC(C(=O)O)c1ccccc1` (configuration not stated), the survivor count under setting [10] is 6 of 6 and the survivor count under setting [9] is listed as 1 of 6.

`Cc1ccc2scc3c4ccccc4nc-3c2c1`: the survivor count (T/C endpoint: mean survival time, dose: 200.0 mg/kg/injection, schedule: Q04DX003 (ip), vehicle: acetone) is recorded as 1 of 6 and the survivor count (T/C endpoint: mean survival time, dose: 400.0 mg/kg/injection, schedule: Q04DX003 (ip), vehicle: acetone) is reported as 0 of 6.

In the case of `CC1CCC(C(C)C)C(OC(=O)N/N=C/N(C)C)C1` (configuration not stated), where the note is “T/C endpoint: mean survival time, dose: 400.0 mg/kg/injection, schedule: Q01DX009 (ip), vehicle: other”, the survivor count is reported as 1 of 6.

For the compound `C[N+](C)(C)Cc1ccc([N+](=O)[O-])cc1`, the survivor count runs as follows: under setting [6], 2 of 6; under setting [7], 0 of 6; under setting [8], 0 of 6.

On to `COc1cc2c(c(OC)c1OC)-c1ccc(SC)c(=O)cc1[C@@H](NC1OCC(O)C(O)C1O)CC2` (some centres not stated), for which the T/C runs as follows: (T/C endpoint: mean survival time, dose: 24.0 mg/kg/injection, schedule: Q01DX009 (ip), vehicle: other) 125 % of control; (T/C endpoint: mean survival time, dose: 48.0 mg/kg/injection, schedule: Q01DX009 (ip), vehicle: other) 135 % of control; under setting [11], 133 % of control; (T/C endpoint: mean survival time, dose: 96.0 mg/kg/injection, schedule: Q01DX009 (ip), vehicle: other) 127 % of control. In addition, the survivor count under setting [12] is on record as 4 of 6.

For `NCCN.[Ni+2].[O-]c1ccccc1[O-].[O-]c1ccccc1[O-]`, the survivor count was 3 of 6 (T/C endpoint: mean survival time, dose: 12.5 mg/kg/injection, schedule: Q01DX009 (ip), vehicle: other); 1 of 6 (T/C endpoint: mean survival time, dose: 25.0 mg/kg/injection, schedule: Q01DX009 (ip), vehicle: other); 0 of 6 under setting [11]; 0 of 6 (T/C endpoint: mean survival time, dose: 100.0 mg/kg/injection, schedule: Q01DX009 (ip), vehicle: other); 0 of 6 under setting [12].

Consider `CC#CC(=O)SCCNC(=O)CC`, for which the survivor count is recorded as 5 of 6 (T/C endpoint: mean survival time, dose: 100.0 mg/kg/injection, schedule: Q01DX009 (ip), vehicle: saline with Tween-80) and 0 of 6 under setting [4].

On to `C=C1C(=O)OCC1C(=O)O` (configuration not stated), for which the survivor count (T/C endpoint: mean survival time, dose: 64.0 mg/kg/injection, schedule: Q01DX009 (ip), vehicle: saline) was 3 of 6; the survivor count (T/C endpoint: mean survival time, dose: 128.0 mg/kg/injection, schedule: Q01DX009 (ip), vehicle: saline) is 0 of 10 and 0 of 6.

As for `COc1ccc(Cl)cc1C/C=N/N(C)C`, the survivor count under setting [8] is reported as 2 of 6.

Consider `COc1nc(-c2ccncc2)nc(N(C)C)n1`, for which the survivor count by setting is: (T/C endpoint: mean survival time, dose: 18.0 mg/kg/injection, schedule: Q04DX002 (ip), vehicle: saline) 1 of 3; (T/C endpoint: mean survival time, dose: 25.0 mg/kg/injection, schedule: Q01DX002 (ip), vehicle: saline) 0 of 3; (T/C endpoint: mean survival time, dose: 50.0 mg/kg/injection, schedule: Q01DX002 (ip), vehicle: saline) 0 of 3; (T/C endpoint: mean survival time, dose: 100.0 mg/kg/injection, schedule: Q01DX002 (ip), vehicle: saline) 0 of 3.

As for `Cc1cccc(NC(=O)Nc2ccc(Oc3ccccc3Cl)c(S(=O)(=O)O)c2)c1`, the survivor count under setting [1] was 0 of 6 and the survivor count under setting [2] is listed as 1 of 6.

Turning to `O=[N+]([O-])c1ccccc1C[P+](c1ccccc1)(c1ccccc1)c1ccccc1`, the survivor count under setting [3] is recorded as 1 of 6.

As for `C=C(C)[C@]12CC(C)C34OC(/C=C\C=C\CCCCCCCCC)(O[C@@H]1[C@@H]3[C@@H]1O[C@]1(CO)[C@@H](O)[C@]1(O)C(=O)C(C)=C[C@@H]41)O2` (some centres not stated), the survivor count (T/C endpoint: mean survival time, dose: 3.0 mg/kg/injection, schedule: Q01DX009 (ip), vehicle: alcohol) is listed as 0 of 6.

With `Cc1ccc(NC(=O)CCl)cc1C`, the survivor count under setting [9] is 3 of 6.

On to `Cc1cccc(Nc2c3ccccc3nc3ccccc23)c1`, for which the survivor count is on record as 2 of 6 (T/C endpoint: mean survival time, dose: 200.0 mg/kg/injection, schedule: Q01DX001 (ip), vehicle: saline with Tween-80) and 0 of 6 (T/C endpoint: mean survival time, dose: 400.0 mg/kg/injection, schedule: Q01DX001 (ip), vehicle: saline with Tween-80).

As for `CN1CCCCCC1`, the survivor count under setting [5] is listed as 0 of 6.

Consider `CC(C)C(N)C(=O)Nc1nncs1` (configuration not stated), for which the T/C was 134 % of control (T/C endpoint: mean survival time, dose: 50.0 mg/kg/injection, schedule: Q01DX009 (ip), vehicle: saline); 134 % of control (T/C endpoint: mean survival time, dose: 100.0 mg/kg/injection, schedule: Q01DX009 (ip), vehicle: saline); 131 % of control (T/C endpoint: median survival time, dose: 50.0 mg/kg/injection, schedule: Q01DX009 (ip), vehicle: saline); 134 % of control (T/C endpoint: median survival time, dose: 100.0 mg/kg/injection, schedule: Q01DX009 (ip), vehicle: saline); 141 % of control (T/C endpoint: median survival time, dose: 400.0 mg/kg/injection, schedule: Q01DX009 (ip), vehicle: saline).

With `CCCC(C)C/C(C)=C/C(C)(C)C(CC(=O)N1CCOCC1)C(=O)O` (configuration not stated), the survivor count is, setting by setting: under setting [10], 1 of 6; under setting [5], 0 of 6.

The values are drawn from PubChem BioAssay AID256 (DTP/NCI, 2004).
